Measurements as given in patent publication US5086054A, “Novel arylcycloalkanepolyalkylamines” (SRI International, priority 1990, dated 1992).
Some entries share one result that the patent states for a list of compounds.

Amino acid sequences for entries named in this document (tags omitted).
UniProt Q60492, whole entry: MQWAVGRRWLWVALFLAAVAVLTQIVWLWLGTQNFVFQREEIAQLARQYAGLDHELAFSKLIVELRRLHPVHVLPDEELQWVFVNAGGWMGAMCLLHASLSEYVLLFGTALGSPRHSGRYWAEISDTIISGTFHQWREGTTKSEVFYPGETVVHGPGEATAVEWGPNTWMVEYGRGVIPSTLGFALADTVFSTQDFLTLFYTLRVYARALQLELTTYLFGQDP

Biological target: T1, SIGMA RECEPTOR (Cavia porcellus, UniProt Q60492)
T1 construct: Two milliter aliquots of the brain membrane preparation, containing 1.7 mg of protein; tissue Pel-Freeze (Rogers, Arkansas); host or cells: guinea-pig brains plus cerebella, membranes
Assay: Sigma receptor binding assay ([3H]-d-SKF-10,047 displacement, brain membranes)
Design: species or system guinea-pig (male Hartley)
Conditions: running text
Method: This example illustrates testing of compounds in receptor binding assays.
Frozen brains from male Hartley guinea-pigs were obtained from Pel-Freeze (Rogers, Arkansas).
The brains plus cerebella were homogenized in 10 volumes (v/w) of 0.1M, pH 7.4, ice-cold Tris-HCl buffer with a Brinkmann polytron at setting 4 for 20 seconds. The homogenates were centrifuged at 20,000×g for 20 minutes at 4° C. The pellets were suspended in 10 volumes of ice-cold water and, after sitting on ice for 10 minutes, were centrifuged 30 minutes at 20,000×g at 4° C. The resulting pellets were resuspended in the above Tris buffer in ratio 1:100 (w/v) for σ receptor assays or in 5 mM Tris-HCl having pH 7.4, for PCP receptor assays. The final suspension was homogenized with a dounce glass-glass tissue grinder Wheaton "200", at small clearance (B), with three strokes before use. Two milliter aliquots of the brain membrane preparation, containing 1.7 mg of protein, were incubated in quadruplicate for one hour at 23° C. with competing mixture of ligand and radioligand. For σ receptors, [^3 H]-d-SKF-10,047, 2 nM was used. For PCP receptors, [^3 H] TCP [^3 H]-1-[1-(2-thienyl)cyclohexyl]piperidine), 1 nM was used. The nonspecific bindings were defined by 0.1 mM d-SKF-10,047 and 0.1 mM phencyclidine respectively for σ and PCP receptors. After incubation, free ligand was separated from bound ligand by rapid filtration through Whatman GF/C filters. The filters had been soaked before use in isoamyl alcohol-saturated water to prevent nonspecific [^3 H]-d-SKF-10,047 binding to the filter. In the PCP receptor assay, the filter was soaked in 0.5% polyethylenimine to reduce the filter binding of [^3 H]-TCP. After filtration, the trapped tissue was washed three times with 4 ml aliquots of 0.1 M ice-cold Tris buffer at pH 7.4 for σ receptors and 5 mM, ice-cold Tris buffer pH 7.4 for PCP receptors. The filters were transferred to 5 ml of liquid scintillation fluid and the retained radioactivity was measured by liquid scintillation spectrometry.

## Oc1ccc(C2(CN3CCCC3)CCCCC2)cc1 [Compound 30]
Listed as compound 30
  potency at σ receptors (in words): increased potency at σ receptors

## O=[N+]([O-])c1ccc(C2(CN3CCCC3)CCCCC2)cc1 [Compound 31]
Listed as compound 31
  potency at σ receptors (in words): increased potency at σ receptors

## Clc1cccc(C2(CN3CCCC3)CCCCC2)c1 [Compound 32]
  potency at σ receptors (in words): increased potency at σ receptors

## COc1cccc(C2(CN3CCCC3)CCCCC2)c1 [Compound 33]
  potency at σ receptors (in words): increased potency at σ receptors

## COc1ccc(C2(CN3CCCC3)CCCCC2)cc1 [Compound 34]
Listed as compound 34
  potency at σ receptors (in words): increased potency at σ receptors

## Oc1cccc(C2(CN3CCCC3)CCCCC2)c1 [Compound 29]
Listed as compound 29
  potency at σ receptors (in words): increased potency at σ receptors

## COc1ccc(C2(CN3CCCC3)CCCCC2)cc1OC [Compound 35]
Listed as compound 35
  potency at σ receptors (in words): increased potency at σ receptors
